The record followed here is publication PMC11787391.

By UniProt entry, the sequences of proteins in these tests, tags left out.
UniProt P63010: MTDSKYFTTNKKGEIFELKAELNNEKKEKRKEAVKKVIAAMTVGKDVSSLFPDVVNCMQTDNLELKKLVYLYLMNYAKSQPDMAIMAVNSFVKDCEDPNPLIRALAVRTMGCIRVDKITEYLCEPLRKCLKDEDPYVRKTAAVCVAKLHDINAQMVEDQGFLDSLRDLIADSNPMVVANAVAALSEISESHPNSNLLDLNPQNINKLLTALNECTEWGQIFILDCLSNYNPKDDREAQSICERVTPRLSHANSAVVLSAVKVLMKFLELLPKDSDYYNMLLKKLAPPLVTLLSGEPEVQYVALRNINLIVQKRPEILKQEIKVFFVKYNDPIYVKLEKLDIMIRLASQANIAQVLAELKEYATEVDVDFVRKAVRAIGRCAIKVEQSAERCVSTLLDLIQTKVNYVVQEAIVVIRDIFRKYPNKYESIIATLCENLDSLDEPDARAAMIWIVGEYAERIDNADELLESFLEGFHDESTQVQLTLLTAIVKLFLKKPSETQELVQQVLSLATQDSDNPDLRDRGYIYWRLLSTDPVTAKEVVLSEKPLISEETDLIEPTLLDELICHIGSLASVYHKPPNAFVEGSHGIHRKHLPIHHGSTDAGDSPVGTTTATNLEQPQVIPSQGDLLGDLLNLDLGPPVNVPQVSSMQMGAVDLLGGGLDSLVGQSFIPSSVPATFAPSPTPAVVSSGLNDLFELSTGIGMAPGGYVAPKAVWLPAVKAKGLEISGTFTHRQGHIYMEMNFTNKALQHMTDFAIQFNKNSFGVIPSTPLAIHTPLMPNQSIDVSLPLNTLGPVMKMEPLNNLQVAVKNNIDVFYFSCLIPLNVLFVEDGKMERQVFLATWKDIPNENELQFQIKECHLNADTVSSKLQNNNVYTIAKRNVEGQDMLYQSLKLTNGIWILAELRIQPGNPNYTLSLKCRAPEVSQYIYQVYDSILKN

These are yes or no findings as the source states them, for the method shown. Binding seen in cells or lysates may run through a third protein. Some results given as binding are weak or reduced against the parent protein; the word gives no strength. For part of these data: Sequences can lack the tags named with a protein.

Test [1] deals with Endogenous GPN3 (human (endogenous in 293T and NCI-H1299)) (UniProt Q9UHW5). In words: co-IP; immunoprecipitation of endogenous proteins from 293T and NCI-H1299 cells.
A further test concerns the target Flag-EGFR (human) (UniProt P00533). In words: co-IP; 293T cells transfected with HA-GPN3, Flag-EGFR or control vector; lysates immunoprecipitated with anti-Flag or anti-HA magnetic beads.
Another test concerns the target Flag-GPN3 (human) (UniProt Q9UHW5). In words: co-IP; 293T cells transfected with Flag-GPN3, GFP-EGFR or control vector; with or without 10 ng/ml EGF for 5 min (Fig. 2D) or overnight MPA (Fig. 3B) before lysis.
In the next test the target is GST-GPN3 (human) (UniProt Q9UHW5). In words: pull-down; GST-GPN3 held on Anti-GST magnetic beads, incubated with lysates from 293T cells expressing the tagged prey; bead-associated proteins detected by immunoblotting; only the target purified. For orientation: In western blotting, separated proteins are transferred to a membrane and probed.
A further test addresses HA-GPN3 (human) (UniProt Q9UHW5). In words: co-IP; 293T cells transfected with HA-GPN3, Flag-EGFR or control vector; lysates immunoprecipitated with anti-Flag or anti-HA magnetic beads.

In the case of “Endogenous EGFR (from UniProt P00533 25-1210) (receptor)”, in test [1], the binding result is “binds”.
HA-GPN3 (from UniProt Q9UHW5 1-284): in the test with Flag-EGFR (human), the binding entry was “binds”.
Take “GFP-EGFR (from UniProt P00533 25-1210) (receptor)”: in the test with Flag-GPN3 (human), the binding entry is listed as “binds”.
As to HA-AP2B1 (from UniProt P63010 1-937), the binding entry in the test with GST-GPN3 (human) was “binds”.
Turning to “Flag-EGFR (from UniProt P00533 25-1210) (receptor)”, in the test with HA-GPN3 (human), the binding result is “binds”.

B1: Flag-CLTA (protein, UniProt P09496 1-248)
chain: MAELDPFGAPAGAPGGPALGNGVAGAGEEDPAAAFLAQQESEIAGIENDEAFAILDGGAPGPQPHGEPPGGPDAVDGVMNGEYYQESNGPTDSYAAISQVDRLQSEPESIRKWREEQMERLEALDANSRKQEAEWKEKAIKELEEWYARQDEQLQKTKANNRVADEAFYKQPFADVIGYVTNINHPCYSLEQAAEEAFVNDIDESSPGTEWERVARLCDFNPKSSKQAKDVSRMRSVLISLKQAPLVH
As for B1, the binding result with GST-GPN3 (human) is on record as “binds”.
